Reference: PMC5822323
These are yes or no findings as the source states them, for the method shown. Binding seen in cells or lysates may run through a third protein.

By UniProt entry, the sequences of proteins in these tests, tags left out.
UniProt Q04640: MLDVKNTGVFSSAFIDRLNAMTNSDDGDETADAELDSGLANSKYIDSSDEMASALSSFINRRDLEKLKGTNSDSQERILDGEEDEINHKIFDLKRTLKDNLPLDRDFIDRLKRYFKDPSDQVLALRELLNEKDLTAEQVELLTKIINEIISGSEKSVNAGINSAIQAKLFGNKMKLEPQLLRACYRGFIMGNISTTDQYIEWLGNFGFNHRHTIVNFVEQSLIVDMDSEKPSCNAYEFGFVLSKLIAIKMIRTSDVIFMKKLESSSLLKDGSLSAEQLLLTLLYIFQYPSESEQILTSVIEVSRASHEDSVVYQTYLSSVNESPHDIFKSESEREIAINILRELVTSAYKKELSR

Key:
[1] = target: GST‐MxiC (Shigella flexneri) (UniProt Q04640); assay: pull-down; reverse set-up: GST‐MxiC as GST fusion, MxiI and its variants fused to a His‐tag (pET30a‐mxiI); Figure S3; only the target purified
[2] = target: GST‐MxiI^L26A (Shigella flexneri) (UniProt P0A225); assay: pull-down; GST‐MxiI or its derivatives bound to glutathione‐Sepharose 4B beads and washed with PBS; incubated 16 hr at 4°C with cleared extract of E. coli expressing the His‐tagged protein; eight washes; eluted with 40 mmol/L Tris pH 8.0, 500 mmol/L NaCl, 50 mmol/L reduced glutathione; Coomassie staining and anti‐His Western blot; only the target purified

Substance: His‐tagged MxiI^T82R (pET30a‐MxiI, mutated) (from UniProt P0A225 1-97)
- binding [1]: no binding

Substance: His‐tagged MxiI^T82K (pET30a‐MxiI, mutated) (from UniProt P0A225 1-97)
- binding [1]: no binding

Substance: His‐Spa40CT (from UniProt Q6XVW1 205-342) (domain or fragment)
- binding [2]: no binding

Substance: His‐Spa40CN (from UniProt Q6XVW1 205-258) (domain or fragment)
- binding [2]: no binding
